# Data taken from PubChem BioAssay AID248 (DTP/NCI, 2004).
# The list shows only some results of the screen, not a fair sample: it gathers some chemical classes. Other doses and runs of a compound may be missing. T/C gives the treated animals as a percentage of the vehicle group. For survival time, this PubChem deposit counts one and a half times the control or more as active, and values a quarter to a half above the control carry no call in these data; other NCI protocols may use other cut-offs. Some entries show no survivor count and are marked so; the dose need not have been tolerated. Schedule codes are those of the source, read here as Q, the interval in days (D) or hours (H), X, the number of doses. Some entries were tested several times; their values stand side by side, smallest first. Some schedules carry Z or #; the key to these is not given.
# System: L1210 leukemia ip in BDF1 mice, survival T/C
# Experiment: NCI In Vivo Anticancer Drug Screen. Data for tumor model L1210 Leukemia (intraperitoneal) in B6D2F1 (BDF1) mice
# Details: T/C endpoint: mean survival time, higher T/C = longer survival
# [1] = dose: 12.5 mg/kg/injection, schedule: Q01DX009 (ip), vehicle: saline
# [2] = dose: 25.0 mg/kg/injection, schedule: Q01DX009 (ip), vehicle: saline
# [3] = dose: 25.0 mg/kg/injection, schedule: Q04DX003 (ip), vehicle: saline
# [4] = dose: 50.0 mg/kg/injection, schedule: Q04DX003 (ip), vehicle: saline
# [5] = dose: 75.0 mg/kg/injection, schedule: Q01DX001 (ip), vehicle: saline
# [6] = dose: 100.0 mg/kg/injection, schedule: Q01DX009 (ip), vehicle: saline
# [7] = dose: 100.0 mg/kg/injection, schedule: Q04DX003 (ip), vehicle: saline
# [8] = dose: 200.0 mg/kg/injection, schedule: Q04DX003 (ip), vehicle: saline
compound,measurement,setting,value
CC1CN(CCCOC(=O)C(O)(c2ccccc2)c2ccccc2)CCN1C (centres undefined),T/C,"dose: 0.78 mg/kg/injection, schedule: Q04DX003 (ip), vehicle: saline",101 % of control [survivor count not shown]
same,T/C,"dose: 1.56 mg/kg/injection, schedule: Q04DX003 (ip), vehicle: saline",101 % of control [survivor count not shown]
same,T/C,"dose: 3.12 mg/kg/injection, schedule: Q01DX009 (ip), vehicle: saline",97 % of control [survivor count not shown]
same,T/C,"dose: 3.12 mg/kg/injection, schedule: Q04DX003 (ip), vehicle: saline",95 % of control [survivor count not shown]
same,T/C,"dose: 6.25 mg/kg/injection, schedule: Q01DX009 (ip), vehicle: saline",103 % of control [survivor count not shown]
same,T/C,"dose: 6.25 mg/kg/injection, schedule: Q04DX003 (ip), vehicle: saline",109 % of control [survivor count not shown]
same,T/C,[1],102 % of control [survivor count not shown]
same,T/C,"dose: 12.5 mg/kg/injection, schedule: Q04DX003 (ip), vehicle: saline",98 % of control [survivor count not shown]
same,T/C,[2],97 % of control [survivor count not shown]
same,T/C,[3],92 % of control [survivor count not shown]
ClCCCCC(CCl)NCCCl (centres undefined),T/C,[1],98 [survivor count not shown] and 101 % of control [survivor count not shown]
same,T/C,[2],134 [survivor count not shown] and 141 % of control [survivor count not shown]
same,T/C,[3],114 % of control [survivor count not shown]
same,T/C,"dose: 33.0 mg/kg/injection, schedule: Q01DX001 (ip), vehicle: saline",116 % of control [survivor count not shown]
same,T/C,"dose: 50.0 mg/kg/injection, schedule: Q01DX001 (ip), vehicle: saline",125 % of control [survivor count not shown]
same,T/C,"dose: 50.0 mg/kg/injection, schedule: Q01DX009 (ip), vehicle: saline",162 [survivor count not shown] and 167 % of control [survivor count not shown]
same,T/C,[4],113 % of control [survivor count not shown]
same,T/C,[5],137 [survivor count not shown] and 143 % of control [survivor count not shown]
same,T/C,[6],88 % of control [survivor count not shown]
same,T/C,[7],133 % of control [survivor count not shown]
same,T/C,"dose: 112.5 mg/kg/injection, schedule: Q01DX001 (ip), vehicle: saline",153 % of control [survivor count not shown]
same,T/C,"dose: 150.0 mg/kg/injection, schedule: Q01DX001 (ip), vehicle: saline",109 % of control [survivor count not shown]
same,T/C,[8],153 % of control [survivor count not shown]
ClCCCC(Cl)CNCCCl (centres undefined),T/C,"dose: 0.1 mg/kg/injection, schedule: Q01DX Z (ip), vehicle: methylcellulose (MC)",113 % of control [survivor count not shown]
same,T/C,"dose: 0.6 mg/kg/injection, schedule: Q01DX Z (ip), vehicle: methylcellulose (MC)",107 [survivor count not shown] and 113 % of control [survivor count not shown]
same,T/C,"dose: 1.0 mg/kg/injection, schedule: Q01DX009 (ip), vehicle: saline",108 % of control [survivor count not shown]
same,T/C,"dose: 1.0 mg/kg/injection, schedule: Q01DX Z (ip), vehicle: methylcellulose (MC)",111 [survivor count not shown] and 117 % of control [survivor count not shown]
same,T/C,"dose: 1.0 mg/kg/injection, schedule: Q04DX003 (ip), vehicle: saline",100 % of control [survivor count not shown]
same,T/C,"dose: 1.5 mg/kg/injection, schedule: Q01DX Z (ip), vehicle: methylcellulose (MC)","107 [survivor count not shown], 108 [survivor count not shown], 117 % of control [survivor count not shown]"
same,T/C,"dose: 2.0 mg/kg/injection, schedule: Q01DX009 (ip), vehicle: saline",102 % of control [survivor count not shown]
same,T/C,"dose: 2.0 mg/kg/injection, schedule: Q04DX003 (ip), vehicle: saline",104 % of control [survivor count not shown]
same,T/C,"dose: 2.2 mg/kg/injection, schedule: Q01DX Z (ip), vehicle: methylcellulose (MC)","119 [survivor count not shown], 124 [survivor count not shown], 125 % of control [survivor count not shown]"
same,T/C,"dose: 4.0 mg/kg/injection, schedule: Q01DX009 (ip), vehicle: saline",96 % of control [survivor count not shown]
same,T/C,"dose: 4.0 mg/kg/injection, schedule: Q04DX003 (ip), vehicle: saline",115 % of control [survivor count not shown]
same,T/C,"dose: 8.0 mg/kg/injection, schedule: Q01DX009 (ip), vehicle: saline",105 % of control [survivor count not shown]
same,T/C,"dose: 8.0 mg/kg/injection, schedule: Q04DX003 (ip), vehicle: saline",115 % of control [survivor count not shown]
CN1CCCC(OC(=O)C(O)(c2ccccc2)C2CCCCC2)C1 (centres undefined),T/C,[3],98 % of control [survivor count not shown]
same,T/C,[4],106 % of control [survivor count not shown]
same,T/C,[7],96 % of control [survivor count not shown]
same,T/C,[8],106 % of control [survivor count not shown]
CCN(CC)CCOC(=O)C(O)(c1ccccc1)c1ccccc1C (centres undefined),T/C,[5],100 % of control [survivor count not shown]
O=C(OCC1CCCCN1)C(O)(c1ccccc1)c1ccccc1 (centres undefined),T/C,[3],98 % of control [survivor count not shown]
same,T/C,[4],102 % of control [survivor count not shown]
same,T/C,[6],89 % of control [survivor count not shown]
